# Some of the results follow.
# B1: MIC2 (Toxoplasma gondii), S8F9G8 (protein)
# chain: MRLQREAVFGLMFACGMWMWPSEVAGGGWSIVDALRKRYDTSRGGDANGVDTSGVEDVIQSESAIGAAEGCTNQLDICFLIDSSGSIGIQNFRLVKQFLHTFLMVLPIGPEEVNNAVVTYSTDVHLQWDLQSPNAVDKQLAAHAVLDMPYKKGSTNTSDGLKACKQILFTGSRPGREHVPKLVIGMTDGESDSDFRTVRAAKEIRELGGIVTVLAVGHYVKHSECRSMCGCSGTSDDDSPCPLYLRADWGQLATAIKPMLKEVCKTLPQDAICSDWSAWSPCSVSCGDGSQIRTRTEVSAPQPGTPTCPDCPAPMGRTCVEQGGLEEIRECSAGVCAVDAGCGVWGEWSAWSASCGNATRKRERTRYNDPPPQGAGRRCENQDPPVLQEQTEEATLAPCITIPPTPPEWAAWSDCTVTCGGGNRHRVRNALPPGLGSQNGESDESLVSKLWPGTDLRQEEACNTSPCPINATCGQFEEWSTCSVSCGGGLKTRSRNPWNEDQQHGGLSCEQQHPGGRTETITCNPQACPVDERPGEWAEWGECSVTCGDGVRERRRGKSLVEAKFGGRTIDQQNEALPEDLKIKNVEYEPCSYPACGASCTYVWSDWNKCVCPMGYQARHAAVKFDYRNKPCDLPTFETKACSCGETNPVPSEGTTPGAPGATGPEQPNQRPLPEGSDENETPTNEEGEQSKKESGSGIAGAIAGGVIGGLILLGAAGGASYHYYLSSSVGSPSAEIEYEADDGATKVVMEEEKETLVPVDDDSDMWME
# Legend:
# Assay in all cases: glycan array binding signal (z-score within array); higher = stronger binding
# Settings in all cases: glycan notation: IUPAC condensed, linker removed
# [1] = biological target: Fuc(a1-2)[Gal(a1-3)]Gal
# Summary of the method: (§1)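 Negative Z-scores can be read as non-binding. The Z-score is calculated within each array and then averaged across arrays of one protein sequence at different concentrations or buffers and across linkers. Arrays, 3228 in all, were curated from the Consortium for Functional Glycomics database and kept only where the protein sequence was available.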
# [2] = biological target: Fuc(a1-2)[Gal(a1-3)]Gal(b1-3)GlcNAc
# Summary of the method: as §1
# [3] = biological target: Fuc(a1-2)[Gal(a1-3)]Gal(b1-3)GlcNAc(b1-2)Man(a1-3)[Fuc(a1-2)[Gal(a1-3)]Gal(b1-3)GlcNAc(b1-2)Man(a1-6)]Man(b1-4)GlcNAc(b1-4)GlcNAc
# Summary of the method: as §1
# [4] = biological target: Fuc(a1-2)[Gal(a1-3)]Gal(b1-4)Glc
# Summary of the method: as §1
# [5] = biological target: Fuc(a1-2)[Gal(a1-3)]Gal(b1-4)GlcNAc
# Summary of the method: as §1
# [6] = biological target: Fuc(a1-2)[Gal(a1-3)]Gal(b1-4)GlcNAc(b1-2)Man(a1-3)[Fuc(a1-2)[Gal(a1-3)]Gal(b1-4)GlcNAc(b1-2)Man(a1-6)]Man(b1-4)GlcNAc(b1-4)GlcNAc
# Summary of the method: as §1
# [7] = biological target: Fuc(a1-2)[Gal(a1-3)]Gal(b1-4)[Fuc(a1-3)]GlcNAc
# Summary of the method: as §1
# [8] = biological target: Fuc(a1-2)[Gal(a1-4)]Gal(b1-4)GlcNAc
# Summary of the method: as §1
# [9] = biological target: Fuc(a1-2)[GalNAc(a1-3)]Gal
# Summary of the method: as §1
# [10] = biological target: Fuc(a1-2)[GalNAc(a1-3)]Gal(b1-3)GalNAc(a1-3)[Fuc(a1-2)]Gal(b1-4)GlcNAc
# Summary of the method: as §1
# [11] = biological target: Fuc(a1-2)[GalNAc(a1-3)]Gal(b1-3)GlcNAc
# Summary of the method: as §1
# [12] = biological target: Fuc(a1-2)[GalNAc(a1-3)]Gal(b1-3)GlcNAc(b1-2)Man(a1-3)[Fuc(a1-2)[GalNAc(a1-3)]Gal(b1-3)GlcNAc(b1-2)Man(a1-6)]Man(b1-4)GlcNAc(b1-4)GlcNAc
# Summary of the method: as §1
# [13] = biological target: Fuc(a1-2)[GalNAc(a1-3)]Gal(b1-4)Glc
# Summary of the method: as §1
# [14] = biological target: Fuc(a1-2)[GalNAc(a1-3)]Gal(b1-4)GlcNAc
# Summary of the method: as §1
# [15] = biological target: Fuc(a1-2)[GalNAc(a1-3)]Gal(b1-4)GlcNAc(b1-2)Man(a1-3)[Fuc(a1-2)[GalNAc(a1-3)]Gal(b1-4)GlcNAc(b1-2)Man(a1-6)]Man(b1-4)GlcNAc(b1-4)GlcNAc
# Summary of the method: as §1
# [16] = biological target: Fuc(a1-2)[GalNAc(a1-3)]Gal(b1-4)GlcNAc(b1-3)Gal(b1-4)GlcNAc
# Summary of the method: as §1
# [17] = biological target: Fuc(a1-2)[GalNAc(a1-3)]Gal(b1-4)GlcNAc(b1-3)Gal(b1-4)GlcNAc(b1-3)Gal(b1-4)GlcNAc
# Summary of the method: as §1
# [18] = biological target: Fuc(a1-2)[GalNAc(a1-3)]Gal(b1-4)[Fuc(a1-3)]GlcNAc
# Summary of the method: as §1
# [19] = biological target: Fuc(a1-2)[GalNAc(a1-4)]Gal(b1-4)GlcNAc
# Summary of the method: as §1
# [20] = biological target: Fuc(a1-2)[GalNAc(b1-3)]Gal
# Summary of the method: as §1
# [21] = biological target: Fuc(a1-3)GlcNAc
# Summary of the method: as §1
# [22] = biological target: Fuc(a1-3)[Gal(b1-4)]Glc6S
# Summary of the method: as §1
# [23] = biological target: Fuc(a1-3)[Gal(b1-4)]GlcNAc
# Summary of the method: as §1
# [24] = biological target: Fuc(a1-3)[Gal(b1-4)]GlcNAc(b1-2)Man(a1-3)[Fuc(a1-3)[Gal(b1-4)]GlcNAc(b1-2)Man(a1-6)]Man(b1-4)GlcNAc(b1-4)GlcNAc
# Summary of the method: as §1
# [25] = biological target: Fuc(a1-3)[Gal(b1-4)]GlcNAc(b1-3)Gal(b1-3)[Fuc(a1-4)]GlcNAc
# Summary of the method: as §1
# [26] = biological target: Fuc(a1-3)[Gal(b1-4)]GlcNAc(b1-3)GalNAc
# Summary of the method: as §1
# [27] = biological target: Fuc(a1-3)[Gal(b1-4)]GlcNAc(b1-4)Gal(b1-4)[Fuc(a1-3)]GlcNAc
# Summary of the method: as §1
# [28] = biological target: Fuc(a1-3)[Gal(b1-4)]GlcNAc(b1-4)Gal(b1-4)[Fuc(a1-3)]GlcNAc(b1-4)Gal(b1-4)[Fuc(a1-3)]GlcNAc
# Summary of the method: as §1
# [29] = biological target: Fuc(a1-3)[Gal(b1-4)]GlcNAc(b1-6)[Gal(b1-3)GlcNAc(b1-3)]Gal(b1-4)Glc
# Summary of the method: as §1
# [30] = biological target: Fuc(a1-3)[Gal(b1-4)]GlcNAc6S
# Summary of the method: as §1
binder,measurement,setting,value
B1,glycan array binding signal (z-score),[1],-0.292
same,glycan array binding signal (z-score),[2],0.239
same,glycan array binding signal (z-score),[3],-1.04
same,glycan array binding signal (z-score),[4],-0.944
same,glycan array binding signal (z-score),[5],-0.592
same,glycan array binding signal (z-score),[6],0.032
same,glycan array binding signal (z-score),[7],0.093
same,glycan array binding signal (z-score),[8],-0.707
same,glycan array binding signal (z-score),[9],-0.489
same,glycan array binding signal (z-score),[10],0.43
same,glycan array binding signal (z-score),[11],0.132
same,glycan array binding signal (z-score),[12],-0.875
same,glycan array binding signal (z-score),[13],0.169
same,glycan array binding signal (z-score),[14],0.413
same,glycan array binding signal (z-score),[15],-0.937
same,glycan array binding signal (z-score),[16],-0.814
same,glycan array binding signal (z-score),[17],0.915
same,glycan array binding signal (z-score),[18],0.955
same,glycan array binding signal (z-score),[19],-0.89
same,glycan array binding signal (z-score),[20],-0.782
same,glycan array binding signal (z-score),[21],-0.671
same,glycan array binding signal (z-score),[22],-0.826
same,glycan array binding signal (z-score),[23],0.085
same,glycan array binding signal (z-score),[24],2.86
same,glycan array binding signal (z-score),[25],-0.573
same,glycan array binding signal (z-score),[26],2.38
same,glycan array binding signal (z-score),[27],0.173
same,glycan array binding signal (z-score),[28],0.256
same,glycan array binding signal (z-score),[29],-0.489
same,glycan array binding signal (z-score),[30],-0.712

# Two entries from above, tab-delimited:
binder	measurement	setting	value
B1	glycan array binding signal (z-score)	[16]	-0.814
same	glycan array binding signal (z-score)	[17]	0.915

# Source: the supplement of paper PMC8728848
